Results from article PMC5291411, “Cytotoxic conjugates of betulinic acid and substituted triazoles prepared by Huisgen Cycloaddition from 30-azidoderivatives” (PLoS ONE, 2017).

Tested on: CCRF-CEM
Assay: Cytotoxic MTS assay, CCRF-CEM
Assay type: cell-based, human
Details: IC50 of CCRF-CEM line vs average of both fibroblasts (BJ, MRC-5)
Description: Cytotoxic activity of all synthesized compounds was investigated in vitro against eight human cancer cell lines and two non-tumor fibroblasts using the standard MTS test (Table 1). The cancer cell lines were derived from T-lymphoblastic leukemia CCRF-CEM, leukemia K562 and their multiresistant counterparts expressing P-glycoprotein, MRP1 and LRP proteins (CEM-DNR, K562-TAX), solid tumors including lung (A549) and colon (HCT116, HCT116p53-/-) carcinomas, osteosarcoma cell line (U2OS), and for comparison, tests were performed on two human non-cancer fibroblast cell lines (BJ, MRC-5).
Biological assays were performed in concordance with our previous publications [[29], [58]; [60]; [61]]. All cells (if not indicated otherwise) were purchased from the American Tissue Culture Collection (ATCC). The CCRF-CEM line is derived from T lymphoblastic leukemia, evincing high chemosenzitivity, K562 represent cells from an acute myeloid leukemia patient sample with bcr-abl translocation, U2OS line is derived from osteosarcoma, HCT116 is colorectal tumor cell line and its p53 gene knock-down counterpart (HCT116p53-/-, Horizon Discovery Ltd, UK) is a model of human cancers with p53 mutation frequently associated with poor prognosis, A549 line is lung adenocarcinoma. The daunorubicin resistant subline of CCRF-CEM cells (CEM-DNR bulk) and paclitaxel resistant subline K562-TAX were selected in our laboratory by the cultivation of maternal cell lines in increasing concentrations of daunorubicine or paclitaxel, respectively. The CEM-DNR bulk cells overexpress MRP-1 and P-glycoprotein protein, while K562-TAX cells overexpress P-glycoprotein only. Both proteins belong to the family of ABC transporters and are involved in the primary and/or acquired multidrug resistance phenomenon. MRC-5 and BJ cell lines were used as a non-tumor control and represent human fibroblasts. The cells were maintained in nunc/corning 80 cm^2 plastic tissue culture flasks and cultured in cell culture medium according to ATCC or Horizon recommendations (DMEM/RPMI 1640 with 5 g/L glucose, 2 mM glutamine, 100 U/mL penicillin, […] streptomycin, 10% fetal calf serum, and NaHCO3).
MTS assay was performed at Institute of Molecular and Translational Medicine by robotic platform (HighResBiosolutions). Cell suspensions were prepared and diluted according to the particular cell type and the expected target cell density (25000–35000 cells/mL based on cell growth characteristics). Cells were added by automatic pipetor (30 μL) into 384 well microtiter plates. All tested compounds were dissolved in 100% DMSO and four-fold dilutions of the intended test concentration were added in 0.15 μL aliquots at time zero to the microtiter plate wells by the echoacustic non-contact liquid handler Echo550 (Labcyte). The experiments were performed in technical duplicates and three biological replicates at least. The cells were incubated with the tested compounds for 72 h at 37°C, in a 5% CO2 atmosphere at 100% humidity. At the end of the incubation period, the cells were assayed by using the MTS test. Aliquots (5 μL) of the MTS stock solution were pipetted into each well and incubated for additional 1–4 h. After this incubation period, the optical density (OD) was measured at 490 nm with an Envision reader (Perkin Elmer). Tumor cell survival (TCS) was calculated by using the following equation: TCS = (ODdrug-exposed well/mean ODcontrol wells) × 100%. The IC50 value, the drug concentration that is lethal to 50% of the tumor cells, was calculated from the appropriate dose-response curves in Dotmatics software.

Structure (SMILES)	TI (therapeutic index)
C=C(Cn1cc(CN)nn1)[C@@H]1CC[C@]2(C(=O)O)CC[C@]3(C)C(CCC4[C@@]5(C)CC[C@H](OC(C)=O)C(C)(C)C5CC[C@]43C)C12 (stereo partly shown) [Compound 9h]	>2.5
C=C(CN=[N+]=[N-])[C@@H]1CC[C@]2(C(=O)O)CC[C@]3(C)C(CCC4[C@@]5(C)CC[C@H](OC(C)=O)C(C)(C)C5CC[C@]43C)C12 (stereo partly drawn) [Compound 6, 3β-O-Acetyl-30-azidobetulinic acid]	3.2
C=C(Cn1cc(-c2ccc(C(C)(C)C)cc2)nn1)[C@@H]1CC[C@]2(C(=O)O)CC[C@]3(C)C(CCC4[C@@]5(C)CC[C@H](OC(C)=O)C(C)(C)C5CC[C@]43C)C12 (stereo partly shown) [Compound 9f]	>1.4
C=C(Cn1cc(-c2ccccc2)nn1)[C@@H]1CC[C@]2(C(=O)O)CC[C@]3(C)C(CCC4[C@@]5(C)CC[C@H](OC(C)=O)C(C)(C)C5CC[C@]43C)C12 (stereo partly shown) [Compound 9a]	>3.1
C=C(Cn1cc(-c2ccccn2)nn1)[C@@H]1CC[C@]2(C(=O)O)CC[C@]3(C)C(CCC4[C@@]5(C)CC[C@H](OC(C)=O)C(C)(C)C5CC[C@]43C)C12 (stereo partly shown) [Compound 9c]	3.2
C=C(Cn1cc(C2CCCC2)nn1)[C@@H]1CC[C@]2(C(=O)O)CC[C@]3(C)C(CCC4[C@@]5(C)CC[C@H](O)C(C)(C)C5CC[C@]43C)C12 (stereo partly shown) [Compound 11g]	>3.0
C=C(CN=[N+]=[N-])[C@@H]1CC[C@]2(C(=O)O)CC[C@]3(C)C(CCC4[C@@]5(C)CC[C@H](O)C(C)(C)C5CC[C@]43C)C12 (stereo partly shown) [Compound 8, 30-azidobetulinic acid]	1.2
C=C(Cn1cc(-c2ccccc2)nn1)[C@@H]1CC[C@]2(C(=O)O)CC[C@]3(C)C(CCC4[C@@]5(C)CC[C@H](O)C(C)(C)C5CC[C@]43C)C12 (stereo partly shown) [Compound 11a]	>3.0
C=C(C)[C@@H]1CC[C@]2(C(=O)O)CC[C@]3(C)[C@H](CC[C@@H]4[C@@]5(C)CC[C@H](O)C(C)(C)[C@@H]5CC[C@]43C)[C@@H]12 [Compound 1, betulinic acid]	0.7
C=C(Cn1cc(-c2ccc(N(C)C)cc2)nn1)[C@@H]1CC[C@]2(C(=O)O)CC[C@]3(C)C(CCC4[C@@]5(C)CC[C@H](OC(C)=O)C(C)(C)C5CC[C@]43C)C12 (stereo partly shown) [Compound 9e]	1.6
C=C(Cn1cc(C2CCCC2)nn1)[C@@H]1CC[C@]2(C(=O)O)CC[C@]3(C)C(CCC4[C@@]5(C)CC[C@H](OC(C)=O)C(C)(C)C5CC[C@]43C)C12 (stereo partly shown) [Compound 9g]	>1.9
C=C(Cn1cc(-c2ccccc2C=O)nn1)[C@@H]1CC[C@]2(C(=O)O)CC[C@]3(C)C(CCC4[C@@]5(C)CC[C@H](OC(C)=O)C(C)(C)C5CC[C@]43C)C12 (stereo partly shown) [Compound 9b]	9.1
C=C(Cn1cc(-c2cccnc2)nn1)[C@@H]1CC[C@]2(C(=O)O)CC[C@]3(C)C(CCC4[C@@]5(C)CC[C@H](OC(C)=O)C(C)(C)C5CC[C@]43C)C12 (stereo partly shown) [Compound 9d]	1.9
C=C(Cn1cc(-c2ccccn2)nn1)[C@@H]1CC[C@]2(C(=O)O)CC[C@]3(C)C(CCC4[C@@]5(C)CC[C@H](O)C(C)(C)C5CC[C@]43C)C12 (stereo partly shown) [Compound 11c]	>3.5
C=C(Cn1cc(-c2ccccc2C=O)nn1)[C@@H]1CC[C@]2(C(=O)O)CC[C@]3(C)C(CCC4[C@@]5(C)CC[C@H](O)C(C)(C)C5CC[C@]43C)C12 (stereo partly shown) [Compound 11b]	>5.9
C=C(CBr)[C@@H]1CC[C@]2(C(=O)O)CC[C@]3(C)C(CCC4[C@@]5(C)CC[C@H](OC(C)=O)C(C)(C)C5CC[C@]43C)C12 (stereo partly drawn) [Compound 4, 3β-O-Acetyl-30-bromobetulinic acid]	4.9
